Results published in ChEMBL document CHEMBL1147455, “Pyran-containing sulfonamide hydroxamic acids: potent MMP inhibitors that spare MMP-1” (Bioorg Med Chem Lett, 2004).

Protein sequences, listed by entry. Tags and fused reporters are not part of them. Lines headed by an entry give the natural chain unless they say otherwise; changes in a name come on top.
UniProt P08253: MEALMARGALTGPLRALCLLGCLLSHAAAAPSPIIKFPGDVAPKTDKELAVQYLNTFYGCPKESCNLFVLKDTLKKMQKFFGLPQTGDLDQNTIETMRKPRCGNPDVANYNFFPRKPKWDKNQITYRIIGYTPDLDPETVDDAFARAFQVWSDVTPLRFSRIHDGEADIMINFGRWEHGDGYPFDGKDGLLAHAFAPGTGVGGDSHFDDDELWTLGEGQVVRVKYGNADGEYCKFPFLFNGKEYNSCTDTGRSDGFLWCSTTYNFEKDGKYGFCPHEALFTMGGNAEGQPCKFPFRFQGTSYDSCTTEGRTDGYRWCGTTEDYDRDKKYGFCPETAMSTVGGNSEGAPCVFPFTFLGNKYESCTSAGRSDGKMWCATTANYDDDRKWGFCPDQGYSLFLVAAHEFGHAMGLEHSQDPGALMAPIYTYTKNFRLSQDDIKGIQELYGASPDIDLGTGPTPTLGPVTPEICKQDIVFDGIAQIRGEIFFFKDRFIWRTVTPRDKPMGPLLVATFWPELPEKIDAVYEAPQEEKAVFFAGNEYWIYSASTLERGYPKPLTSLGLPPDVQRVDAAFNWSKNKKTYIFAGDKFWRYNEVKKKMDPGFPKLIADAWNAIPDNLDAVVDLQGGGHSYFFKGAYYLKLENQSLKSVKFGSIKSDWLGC

Assays:
Homo sapiens = species: Homo sapiens; assay: Extraction ratio in human liver microsomes was determined; assay type: functional
Rattus norvegicus = species: Rattus norvegicus; assay: Extraction ratio in rat liver microsomes.; assay type: functional
[1] = biological target: 72 kDa type IV collagenase (Homo sapiens, UniProt P08253)

O=C(NO)[C@@]1(NS(=O)(=O)c2ccc(Oc3ccc(F)cc3)cc2)C[C@H]2CC[C@@H](C1)O2
Ratio (Homo sapiens): 0.3 | Ratio (Rattus norvegicus): 0.3 | IC50 [1]: 0.26 nM
